According to paper PMC10093586:
Results are given in words; binding and its absence hold for the method and conditions named. Binding seen in cells or lysates may run through a third protein. Some binding calls cover weakened binding; strength is not graded here.

Amino acid sequences for entries named in this document (tags omitted).
UniProt P05556: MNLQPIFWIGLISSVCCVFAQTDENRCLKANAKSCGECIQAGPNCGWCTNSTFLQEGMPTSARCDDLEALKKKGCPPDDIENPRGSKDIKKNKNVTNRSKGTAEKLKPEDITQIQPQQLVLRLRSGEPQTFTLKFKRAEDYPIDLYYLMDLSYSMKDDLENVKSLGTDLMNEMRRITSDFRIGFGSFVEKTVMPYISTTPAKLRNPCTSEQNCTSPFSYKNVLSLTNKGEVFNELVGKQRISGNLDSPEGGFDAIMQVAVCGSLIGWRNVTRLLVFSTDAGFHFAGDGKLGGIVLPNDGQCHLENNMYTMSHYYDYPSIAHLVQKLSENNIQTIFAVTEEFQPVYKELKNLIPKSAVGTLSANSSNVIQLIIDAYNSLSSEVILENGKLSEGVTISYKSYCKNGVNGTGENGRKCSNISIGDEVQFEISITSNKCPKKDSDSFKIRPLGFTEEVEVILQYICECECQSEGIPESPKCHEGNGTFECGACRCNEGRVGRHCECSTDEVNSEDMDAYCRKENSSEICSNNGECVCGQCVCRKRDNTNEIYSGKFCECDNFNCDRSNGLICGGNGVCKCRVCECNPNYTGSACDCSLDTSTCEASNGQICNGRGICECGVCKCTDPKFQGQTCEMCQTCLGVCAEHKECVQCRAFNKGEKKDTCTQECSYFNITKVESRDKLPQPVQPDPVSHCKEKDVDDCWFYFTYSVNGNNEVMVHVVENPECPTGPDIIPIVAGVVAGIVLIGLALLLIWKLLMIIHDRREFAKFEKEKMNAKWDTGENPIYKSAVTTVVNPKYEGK
UniProt Q12809: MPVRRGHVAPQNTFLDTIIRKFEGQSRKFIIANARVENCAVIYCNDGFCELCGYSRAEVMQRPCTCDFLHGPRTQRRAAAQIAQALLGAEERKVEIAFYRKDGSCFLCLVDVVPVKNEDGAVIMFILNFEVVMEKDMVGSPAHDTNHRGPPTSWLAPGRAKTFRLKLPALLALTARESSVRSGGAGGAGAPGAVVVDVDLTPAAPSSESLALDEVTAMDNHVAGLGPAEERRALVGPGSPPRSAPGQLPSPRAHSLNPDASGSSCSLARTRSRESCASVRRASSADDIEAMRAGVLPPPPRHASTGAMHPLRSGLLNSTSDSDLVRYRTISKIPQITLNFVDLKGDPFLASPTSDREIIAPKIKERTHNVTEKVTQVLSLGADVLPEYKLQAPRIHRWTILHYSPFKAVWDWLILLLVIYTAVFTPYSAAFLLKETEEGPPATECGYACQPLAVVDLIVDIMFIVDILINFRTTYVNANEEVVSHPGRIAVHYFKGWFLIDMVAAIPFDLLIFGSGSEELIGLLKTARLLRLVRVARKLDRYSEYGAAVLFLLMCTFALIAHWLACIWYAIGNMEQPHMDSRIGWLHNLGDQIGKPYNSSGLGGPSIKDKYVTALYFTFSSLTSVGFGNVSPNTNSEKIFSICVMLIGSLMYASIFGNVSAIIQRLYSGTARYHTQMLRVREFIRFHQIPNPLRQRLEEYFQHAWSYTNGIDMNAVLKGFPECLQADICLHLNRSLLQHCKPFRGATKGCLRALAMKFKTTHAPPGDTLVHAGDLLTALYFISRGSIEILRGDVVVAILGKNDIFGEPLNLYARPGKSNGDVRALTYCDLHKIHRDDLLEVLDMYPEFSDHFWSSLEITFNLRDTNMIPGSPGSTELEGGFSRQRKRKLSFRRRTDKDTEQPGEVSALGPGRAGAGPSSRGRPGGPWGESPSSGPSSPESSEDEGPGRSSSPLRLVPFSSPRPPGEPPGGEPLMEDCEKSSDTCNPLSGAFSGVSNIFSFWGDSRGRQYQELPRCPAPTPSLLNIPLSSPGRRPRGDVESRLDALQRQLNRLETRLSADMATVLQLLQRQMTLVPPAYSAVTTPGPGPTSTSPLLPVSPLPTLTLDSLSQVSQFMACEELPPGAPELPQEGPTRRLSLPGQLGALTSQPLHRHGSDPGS

Biological target: β1 subunit of integrin receptors (β1 integrin) (human (endogenous in primary PDAC tissue)) (UniProt P05556)
Experiment: co-IP; β1 integrin immunoprecipitated with clone TS2/16 from total lysates (0.5 mg) of primary human PDAC and corresponding normal tissue, protein A/G agarose beads, 4 °C; blot with anti-hERG1 C terminus antibody

hERG1 (human ether-á-go-go-related gene 1 K+ channel) (from UniProt Q12809 1-1159)
binding: binds
